Results published in the supplement of paper PMC12067093, “Discovery and optimisation of a covalent ligand for TRIM25 and its application to targeted protein ubiquitination” (Chemical Science, 2025).
This is one part of the list.

Chains of the proteins cited; added tags and fusions are not shown. Lines headed by an entry give the natural chain unless they say otherwise; changes in a name come on top.
UniProt O60701: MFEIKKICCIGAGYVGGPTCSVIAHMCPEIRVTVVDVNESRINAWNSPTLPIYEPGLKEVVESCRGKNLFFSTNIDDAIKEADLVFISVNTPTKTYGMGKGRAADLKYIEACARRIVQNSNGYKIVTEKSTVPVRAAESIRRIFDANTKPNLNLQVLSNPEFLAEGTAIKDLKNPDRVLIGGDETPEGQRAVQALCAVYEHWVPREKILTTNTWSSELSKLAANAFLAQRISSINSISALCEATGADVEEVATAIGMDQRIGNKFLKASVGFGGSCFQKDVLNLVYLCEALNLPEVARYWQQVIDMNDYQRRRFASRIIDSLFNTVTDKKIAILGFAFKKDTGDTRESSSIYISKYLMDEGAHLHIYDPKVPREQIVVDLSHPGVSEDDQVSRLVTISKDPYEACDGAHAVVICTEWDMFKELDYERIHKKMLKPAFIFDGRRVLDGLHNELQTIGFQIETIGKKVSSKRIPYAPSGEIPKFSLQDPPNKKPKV
UniProt P54578: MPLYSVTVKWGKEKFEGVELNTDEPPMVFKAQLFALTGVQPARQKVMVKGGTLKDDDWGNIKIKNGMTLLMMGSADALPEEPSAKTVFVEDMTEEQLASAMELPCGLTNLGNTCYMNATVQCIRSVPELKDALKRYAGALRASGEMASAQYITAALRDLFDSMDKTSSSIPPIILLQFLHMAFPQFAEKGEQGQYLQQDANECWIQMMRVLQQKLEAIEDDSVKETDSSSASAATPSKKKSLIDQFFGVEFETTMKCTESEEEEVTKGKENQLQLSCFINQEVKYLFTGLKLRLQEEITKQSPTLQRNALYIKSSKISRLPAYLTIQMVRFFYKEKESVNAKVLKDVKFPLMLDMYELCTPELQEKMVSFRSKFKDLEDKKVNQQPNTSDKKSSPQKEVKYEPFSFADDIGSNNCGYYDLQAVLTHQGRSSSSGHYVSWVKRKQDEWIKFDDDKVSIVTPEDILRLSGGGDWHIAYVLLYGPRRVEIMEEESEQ
UniProt O94966: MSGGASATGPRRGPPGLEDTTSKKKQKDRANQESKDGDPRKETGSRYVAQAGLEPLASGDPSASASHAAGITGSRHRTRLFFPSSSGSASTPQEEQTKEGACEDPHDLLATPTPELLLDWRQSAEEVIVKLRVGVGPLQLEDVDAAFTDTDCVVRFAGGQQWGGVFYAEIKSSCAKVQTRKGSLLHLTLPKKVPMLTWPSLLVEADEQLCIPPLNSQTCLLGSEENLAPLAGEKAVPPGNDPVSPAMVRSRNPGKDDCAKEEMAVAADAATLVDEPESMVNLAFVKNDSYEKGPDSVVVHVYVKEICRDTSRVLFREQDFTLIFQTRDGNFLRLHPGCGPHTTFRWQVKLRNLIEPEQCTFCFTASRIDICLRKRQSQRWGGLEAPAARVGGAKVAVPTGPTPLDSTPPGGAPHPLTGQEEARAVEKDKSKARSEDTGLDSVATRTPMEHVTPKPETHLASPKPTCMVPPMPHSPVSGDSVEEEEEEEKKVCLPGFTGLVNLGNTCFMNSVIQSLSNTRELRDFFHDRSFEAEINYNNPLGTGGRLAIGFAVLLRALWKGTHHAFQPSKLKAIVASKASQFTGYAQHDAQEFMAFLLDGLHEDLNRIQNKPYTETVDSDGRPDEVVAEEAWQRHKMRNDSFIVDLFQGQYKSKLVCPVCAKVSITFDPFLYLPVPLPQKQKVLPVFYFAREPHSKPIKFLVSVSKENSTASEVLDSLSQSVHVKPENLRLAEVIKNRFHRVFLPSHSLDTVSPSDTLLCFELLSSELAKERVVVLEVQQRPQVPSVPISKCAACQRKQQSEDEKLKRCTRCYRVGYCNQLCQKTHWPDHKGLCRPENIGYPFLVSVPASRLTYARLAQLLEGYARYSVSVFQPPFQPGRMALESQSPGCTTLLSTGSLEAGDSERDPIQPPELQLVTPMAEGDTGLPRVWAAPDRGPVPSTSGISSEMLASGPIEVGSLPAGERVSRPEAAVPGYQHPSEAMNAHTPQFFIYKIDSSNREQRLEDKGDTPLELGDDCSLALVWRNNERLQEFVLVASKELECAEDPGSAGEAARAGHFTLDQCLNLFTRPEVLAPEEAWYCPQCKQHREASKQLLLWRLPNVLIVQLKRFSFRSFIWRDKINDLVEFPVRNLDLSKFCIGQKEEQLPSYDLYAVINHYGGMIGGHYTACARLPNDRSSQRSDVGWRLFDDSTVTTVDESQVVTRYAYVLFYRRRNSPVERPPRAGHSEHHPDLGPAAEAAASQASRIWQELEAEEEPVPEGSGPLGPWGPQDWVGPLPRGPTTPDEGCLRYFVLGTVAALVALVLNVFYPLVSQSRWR
UniProt Q9HAU5: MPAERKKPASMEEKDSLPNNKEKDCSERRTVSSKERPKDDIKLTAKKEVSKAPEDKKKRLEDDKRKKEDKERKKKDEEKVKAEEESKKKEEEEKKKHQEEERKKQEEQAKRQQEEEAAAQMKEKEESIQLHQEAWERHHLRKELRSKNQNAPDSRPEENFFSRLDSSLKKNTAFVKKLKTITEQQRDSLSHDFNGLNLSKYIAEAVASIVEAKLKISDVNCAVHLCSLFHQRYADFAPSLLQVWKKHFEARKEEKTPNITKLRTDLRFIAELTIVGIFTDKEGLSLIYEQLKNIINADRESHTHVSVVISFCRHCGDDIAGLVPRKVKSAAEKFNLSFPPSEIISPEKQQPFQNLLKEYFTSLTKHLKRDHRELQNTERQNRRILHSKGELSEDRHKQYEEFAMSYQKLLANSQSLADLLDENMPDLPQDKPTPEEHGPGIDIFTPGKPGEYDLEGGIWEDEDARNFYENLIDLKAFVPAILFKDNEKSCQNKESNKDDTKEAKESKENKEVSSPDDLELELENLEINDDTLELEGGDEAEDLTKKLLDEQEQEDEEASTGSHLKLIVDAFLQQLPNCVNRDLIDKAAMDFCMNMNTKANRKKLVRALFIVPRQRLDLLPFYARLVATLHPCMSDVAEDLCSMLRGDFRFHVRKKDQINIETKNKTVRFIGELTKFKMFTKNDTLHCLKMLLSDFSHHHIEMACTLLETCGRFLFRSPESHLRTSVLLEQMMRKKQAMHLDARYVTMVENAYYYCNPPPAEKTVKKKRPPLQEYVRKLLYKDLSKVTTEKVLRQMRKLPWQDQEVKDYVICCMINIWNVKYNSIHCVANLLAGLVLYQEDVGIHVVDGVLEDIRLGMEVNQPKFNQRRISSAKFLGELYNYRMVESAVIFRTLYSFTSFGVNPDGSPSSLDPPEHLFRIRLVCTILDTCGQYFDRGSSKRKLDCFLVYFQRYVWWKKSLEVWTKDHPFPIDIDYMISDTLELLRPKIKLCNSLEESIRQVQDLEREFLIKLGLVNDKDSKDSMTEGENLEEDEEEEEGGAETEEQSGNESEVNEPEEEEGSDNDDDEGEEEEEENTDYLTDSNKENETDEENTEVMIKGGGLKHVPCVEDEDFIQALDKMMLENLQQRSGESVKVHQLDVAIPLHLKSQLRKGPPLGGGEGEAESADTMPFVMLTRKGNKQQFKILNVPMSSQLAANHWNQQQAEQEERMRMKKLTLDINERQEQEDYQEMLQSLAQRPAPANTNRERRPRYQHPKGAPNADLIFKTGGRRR
UniProt Q92900: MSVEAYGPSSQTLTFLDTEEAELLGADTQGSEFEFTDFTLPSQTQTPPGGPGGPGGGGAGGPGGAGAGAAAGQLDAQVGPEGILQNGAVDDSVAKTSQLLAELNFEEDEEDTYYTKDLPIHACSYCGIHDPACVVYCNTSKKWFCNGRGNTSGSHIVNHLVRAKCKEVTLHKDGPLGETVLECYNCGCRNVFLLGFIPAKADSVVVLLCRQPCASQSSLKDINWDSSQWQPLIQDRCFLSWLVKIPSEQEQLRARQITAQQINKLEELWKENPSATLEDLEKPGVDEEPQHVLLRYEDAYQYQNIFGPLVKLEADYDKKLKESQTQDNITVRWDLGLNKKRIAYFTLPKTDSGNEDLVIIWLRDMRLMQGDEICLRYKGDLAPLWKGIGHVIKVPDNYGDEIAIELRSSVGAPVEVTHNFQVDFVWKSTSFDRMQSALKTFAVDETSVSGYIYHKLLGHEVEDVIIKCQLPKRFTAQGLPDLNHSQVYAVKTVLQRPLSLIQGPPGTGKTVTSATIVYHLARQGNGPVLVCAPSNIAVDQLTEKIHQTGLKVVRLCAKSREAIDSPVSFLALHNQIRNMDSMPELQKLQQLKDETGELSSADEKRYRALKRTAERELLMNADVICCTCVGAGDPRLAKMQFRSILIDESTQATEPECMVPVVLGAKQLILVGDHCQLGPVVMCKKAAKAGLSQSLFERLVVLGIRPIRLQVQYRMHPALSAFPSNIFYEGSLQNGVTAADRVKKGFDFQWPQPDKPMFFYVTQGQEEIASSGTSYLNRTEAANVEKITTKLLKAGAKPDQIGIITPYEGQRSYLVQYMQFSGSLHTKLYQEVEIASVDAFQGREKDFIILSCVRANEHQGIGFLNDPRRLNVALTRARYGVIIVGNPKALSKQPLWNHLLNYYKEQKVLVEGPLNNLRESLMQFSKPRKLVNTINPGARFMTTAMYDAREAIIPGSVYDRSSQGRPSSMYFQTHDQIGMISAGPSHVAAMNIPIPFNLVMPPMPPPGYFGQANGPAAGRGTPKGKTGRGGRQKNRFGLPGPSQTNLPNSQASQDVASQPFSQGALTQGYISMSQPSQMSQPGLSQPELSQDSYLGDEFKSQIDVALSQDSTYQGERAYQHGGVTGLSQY
UniProt Q9NYU2: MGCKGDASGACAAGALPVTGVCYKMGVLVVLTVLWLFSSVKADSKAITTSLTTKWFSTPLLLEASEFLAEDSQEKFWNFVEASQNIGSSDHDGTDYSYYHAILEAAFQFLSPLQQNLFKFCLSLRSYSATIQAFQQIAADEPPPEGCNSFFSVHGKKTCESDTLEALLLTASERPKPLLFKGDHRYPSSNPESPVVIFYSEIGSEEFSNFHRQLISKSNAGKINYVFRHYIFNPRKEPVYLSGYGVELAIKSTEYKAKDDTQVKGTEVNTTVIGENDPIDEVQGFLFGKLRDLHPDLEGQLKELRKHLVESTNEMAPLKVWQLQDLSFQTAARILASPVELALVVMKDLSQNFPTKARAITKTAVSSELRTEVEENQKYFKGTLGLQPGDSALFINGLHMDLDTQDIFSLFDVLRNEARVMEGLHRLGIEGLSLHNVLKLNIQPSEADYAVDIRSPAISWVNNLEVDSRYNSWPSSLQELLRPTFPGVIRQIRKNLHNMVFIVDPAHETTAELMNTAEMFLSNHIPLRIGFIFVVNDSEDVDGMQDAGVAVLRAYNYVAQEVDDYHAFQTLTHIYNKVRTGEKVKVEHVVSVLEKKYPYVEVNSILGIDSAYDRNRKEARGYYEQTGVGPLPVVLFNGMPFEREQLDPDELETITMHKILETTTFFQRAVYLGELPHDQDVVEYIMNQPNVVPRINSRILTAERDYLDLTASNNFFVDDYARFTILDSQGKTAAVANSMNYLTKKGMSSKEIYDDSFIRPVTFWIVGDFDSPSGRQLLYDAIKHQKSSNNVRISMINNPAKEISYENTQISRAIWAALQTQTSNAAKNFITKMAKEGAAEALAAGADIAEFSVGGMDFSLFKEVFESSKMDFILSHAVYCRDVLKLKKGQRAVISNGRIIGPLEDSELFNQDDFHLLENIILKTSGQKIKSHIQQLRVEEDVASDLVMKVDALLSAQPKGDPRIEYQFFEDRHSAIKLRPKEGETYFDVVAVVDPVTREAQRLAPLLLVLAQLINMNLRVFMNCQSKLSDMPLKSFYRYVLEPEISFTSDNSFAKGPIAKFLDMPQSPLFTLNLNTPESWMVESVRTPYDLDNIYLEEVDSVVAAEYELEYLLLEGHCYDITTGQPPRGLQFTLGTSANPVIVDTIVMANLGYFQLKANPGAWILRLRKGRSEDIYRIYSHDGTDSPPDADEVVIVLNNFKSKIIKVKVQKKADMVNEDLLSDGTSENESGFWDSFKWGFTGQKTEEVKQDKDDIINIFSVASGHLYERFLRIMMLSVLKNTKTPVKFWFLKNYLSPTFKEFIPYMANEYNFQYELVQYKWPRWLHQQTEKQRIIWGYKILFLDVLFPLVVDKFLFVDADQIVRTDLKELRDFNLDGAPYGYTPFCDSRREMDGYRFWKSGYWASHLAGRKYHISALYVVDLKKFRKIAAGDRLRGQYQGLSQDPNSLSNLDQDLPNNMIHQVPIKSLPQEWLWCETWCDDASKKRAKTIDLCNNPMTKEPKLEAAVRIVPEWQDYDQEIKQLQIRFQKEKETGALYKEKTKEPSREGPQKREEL
UniProt P07919: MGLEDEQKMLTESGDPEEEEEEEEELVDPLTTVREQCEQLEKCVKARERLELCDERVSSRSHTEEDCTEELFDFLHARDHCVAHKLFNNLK
UniProt P15374: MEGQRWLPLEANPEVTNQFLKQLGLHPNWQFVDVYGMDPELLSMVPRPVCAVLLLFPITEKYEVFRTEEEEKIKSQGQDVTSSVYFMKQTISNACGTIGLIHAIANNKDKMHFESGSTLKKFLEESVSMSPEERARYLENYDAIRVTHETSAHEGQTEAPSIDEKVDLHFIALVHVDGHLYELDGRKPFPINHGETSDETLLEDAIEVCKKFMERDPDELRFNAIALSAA

Compound: CC1Cc2ccccc2N1C(=O)C1CCCN(C1)C(=O)CCl (mixture of isomers) [TRIM25 ligand 11 (diastereomer mixture)]
Test: probe-labelled cysteine peptide fold change vs DMSO (competition) (log2 fold change); higher = less target engagement (more negative = stronger competition)
Settings: THP-1, incubation time: 4 h
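Further: competitive chemoproteomic profiling in live THP-1 cells with an iodoacetamide desthiobiotin (IA-DTB) probe, comparing probe-labelled peptide intensities in compound-treated cells against DMSO-treated controls.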

Target | probe-labelled cysteine peptide fold change (10 µM) | probe-labelled cysteine peptide fold change (50 µM)
UCHL5_Q9Y5K5_100_QVINNACATQAIVSVLLNCTHQDVHLGETLSEFK (UniProt Q9Y5K5) | 0.0354 | -0.242
UGDH_O60701_9+20_ICCIGAGYVGGPTCSVIAHMCPEIR (UniProt O60701) | -0.00335 | 0.117
UBXN7_O94888_38_HMLEACNNNLEMAVTMFLDGGGIAEEPSTSSASVSTVRPHTEEEVRAPIPQK (UniProt O94888) | -0.0254 | -0.299
UMPS_P11172_278_ELLQLADALGPSICMLK (UniProt P11172) | 0.255 | 0.07
UMPS_P11172_174_LHSVCTLSK (UniProt P11172) | 0.0745 | 0.0932
UQCRC2_P22695_125_ENMAYTVECLR (UniProt P22695) | 0.0726 | 0.0542
UCK2_Q9BZX2_241_RQTNGCLNGYTPSR (UniProt Q9BZX2) | -0.0274 | -0.121
USP37_Q86T82_538_AEELEYSCEK (UniProt Q86T82) | 0.188 | 0.339
URI1_O94763_268_NTNVNAMHQVTDSHTPCHK (UniProt O94763) | 0.0292 | -0.235
USP14_P54578_277_ENQLQLSCFINQEVK (UniProt P54578) | -0.0118 | -0.0219
USP15_Q9Y4E8_634_ISTETEETEGSLHCCK (UniProt Q9Y4E8) | -0.0446 | -0.0793
USP19_O94966_1017_LEDKGDTPLELGDDCSLALVWR (UniProt O94966) | -0.14 | -0.0111
UPF2_Q9HAU5_578_LIVDAFLQQLPNCVNR (UniProt Q9HAU5) | -0.0302 | -0.0787
UNC13D_Q70J99_276_TETYPDRGQCHLQFQLIHK (UniProt Q70J99) | 3.21e-05 | 0.0391
USP11_P51784_468+471_STLVCPDCGNVSVTFDPFCYLSVPLPISHKR (UniProt P51784) | -0.0479 | -0.218
UPF2_Q9HAU5_226_ISDVNCAVHLCSLFHQR (UniProt Q9HAU5) | 0.32 | -0.121
USP4_Q13107_7_AEGGGCR (UniProt Q13107) | 0.644 | 0.609
USP13_Q92995_231_ENLWLNLTDGSVLCGK (UniProt Q92995) | -0.0761 | 0.217
USP48_Q86UV5_290_LLSLPCTLNLQLMR (UniProt Q86UV5) | -0.0857 | -0.28

Target | probe-labelled cysteine peptide fold change (10 µM) | probe-labelled cysteine peptide fold change (50 µM)
USP7_Q93009_721_IRDLLPVMCDR (UniProt Q93009) | -0.00648 | -0.106
UGDH_O60701_288_DVLNLVYLCEALNLPEVAR (UniProt O60701) | -0.244 | 0.119
URB2_Q14146_1380_LHNVLFSILQCHPK (UniProt Q14146) | 0.199 | 0.859
USP19_O94966_102_EGACEDPHDLLATPTPELLLDWR (UniProt O94966) | -0.0514 | -0.155
UPF1_Q92900_374_LMQGDEICLR (UniProt Q92900) | -0.0755 | -0.115
UPF1_Q92900_683_QLILVGDHCQLGPVVMCK (UniProt Q92900) | -0.0105 | 0.054
USP40_Q9NVE5_1054_RIEICLEPLQK (UniProt Q9NVE5) | -0.132 | -0.0534
UGGT1_Q9NYU2_159_TCESDTLEALLLTASERPK (UniProt Q9NYU2) | 0.138 | 0.107
UHRF1_Q96T88_170_KAPSRDEPCSSTSR (UniProt Q96T88) | 0.0682 | -0.0741
URB1_O60287_78_ISVECVEIFQLLSGEK (UniProt O60287) | 0.353 | 0.349
UGGT1_Q9NYU2_1386_DFNLDGAPYGYTPFCDSRR (UniProt Q9NYU2) | -0.267 | 0.0181
USP14_P54578_359_FPLMLDMYELCTPELQEK (UniProt P54578) | -0.0993 | -0.0838
UQCRH_P07919_53_LELCDER (UniProt P07919) | -0.254 | -0.183
USP47_Q96K76_856_AGGDSGNVDDDCER (UniProt Q96K76) | 0.0394 | -0.0113
UBTF_P17480_33_WSQEDMLTLLECMK (UniProt P17480) | 0.0726 | -0.0605
USP16_Q9Y5T5_726_FPEILDLAPFCTLK (UniProt Q9Y5T5) | -0.0714 | -0.123
UCHL3_P15374_95_QTISNACGTIGLIHAIANNK (UniProt P15374) | -0.0486 | -0.313
UBR7_Q8N806_182_HLGAIPPESGDFQEMVCQACMK (UniProt Q8N806) | -0.00955 | -0.153
UHRF1_Q96T88_497_RTAEQSCDQK (UniProt Q96T88) | -0.0136 | -0.0331
